## Library screen at single concentrations

A: 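Phenotypic screen: M. tuberculosis growth, cholesterol and DPPC medium, 4 days; the read-out is not stated. Tested at 50 µM. Higher reads as more growth inhibition (inferred: compounds with an IC50 in retests scored well above the rest). Size under these conditions: about 69,000 compounds, about 370 of them at 50% or above in at least one test.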
B: 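Whole-cell growth test on Mycobacterium tuberculosis, read after 3 days in glucose-containing 7H9 medium; the read-out is not stated. Tested at 50 µM. The record gives no direction; compounds that gave an IC50 in retests scored well above the rest, so higher reads as more growth inhibition. About 69,000 compounds were tested under these conditions; 1.1% (about 760) showed 50% or more at least once.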

Each number is a percent effect as filed. How 0% and 100% were set is not recorded. Most values in the screen are low, and negative values occur. Compounds were drawn at random from those tested, without regard to their results. Two or more numbers in one place are separate tests of the same structure; such repeats can differ widely.

SMILES	A	B
CCn1cnnc1CNS(=O)(=O)N1CCCC1c1ccc(C)o1 (stereo not shown)	-7.126	10.28
Cc1cnn(CCC(=O)N2CCCC(c3cc(C(N)=O)[nH]n3)C2)c1 (stereo not shown)	3.309	30.19
Cc1cc(C(=O)N2CCC(NC(=O)c3cccnc3)CC2)c(C)o1	10.12	6.079
CN(CC(F)(F)F)C(=O)CN1CCC(c2cc3ccccc3[nH]2)CC1	2.323	-3.365 & 12.15
Cn1nc(C(=O)NCc2ccc(Cl)cc2)c2c1CCS(=O)(=O)C2	15.72	17.08
COCCN1CCc2cc(C(=O)N(C)C)c(NCC3CC3)nc2CC1.O=C(O)C(F)(F)F.O=C(O)C(F)(F)F	5.665	-3.381
CNC(=O)COc1cccc(CNC(=O)c2c(C)noc2C)c1	-18.92	-28.79
COc1cccc(C(CO)NC(=O)NC(C)C)c1 (stereo not shown)	2.96 & 16.7	15.91
CN(C)Cc1ccc(C2CCCCN2C(=O)c2cccnn2)cc1 (stereo not shown)	13.74	-9.522
N#Cc1ccc(S(=O)(=O)NC(=O)C2CC(c3ccccc3)=NO2)cc1 (stereo not shown)	-1.757	-2.669 & -14.03
O=C(O)C(F)(F)F.O=C(O)C(F)(F)F.O=C(O)C(F)(F)F.c1cncc(C[C@H]2[C@H](N3CCOCC3)CCN2Cc2cccs2)c1	21.83	-0.8317 & 22.94
Fc1ccc2[nH]c([C@H]3CCN(C4CCOCC4)C3)nc2c1	-0.05748	-41.53 & -4.653
CC(C)(C)CC(=O)N[C@@H]1CO[C@H](CNC(=O)c2ccncc2)[C@H]1O	-8.344	-2.882 & -0.6015
NC(=O)NC(=O)C(c1ccccc1)N1CCN(Cc2ccccc2)CC1 (stereo not shown)	0.7158	19.42
CCc1ncc(CNC2CC(=O)N(CCc3cccc(Cl)c3)C2)cn1 (stereo not shown)	-3.711	18.26
CC1N(c2cnn(C)c2)C(=O)COC12CCN(Cc1ccco1)CC2.O=C(O)C(F)(F)F (stereo not shown)	-11.05	-14
[H][C@@]12COC[C@H](c3nc(C)no3)[C@]1([H])CN(C(=O)Cc1ccccc1F)C2	-6.833	6.661
O=C(CCc1cccs1)N1CCCC(n2ccnc2)C1 (stereo not shown)	1.352	-0.3738
COc1ccc(S(=O)(=O)NCCC(O)c2cc(C)oc2C)c(C)c1 (stereo not shown)	18.39	2.226 & -6.963
N#CCCN(C(=O)COC1CCCC1)C1CC1	6.227	-2.442
O=C(O)C(F)(F)F.O=C(O)C(F)(F)F.[H][C@]12CCN(c3ncccn3)[C@@]1([H])C[C@@H](C(=O)NCc1cccnc1)O2	-17.45 & -22.51	-18.87
O=C(O)C(F)(F)F.O=C(c1ccccn1)N1CCc2ncc(Cn3cccn3)n2CC1	-21.26	2.51
CC(C)c1ccc(C(O)Cn2c(=O)c(C#N)cn(C3CC3)c2=O)cc1 (stereo not shown)	3.575	-11.7
CC(C)Cc1nc(CN(C)CCOc2ccc(F)cc2)no1	31.32	35.42
CC1COCCN1Cc1nc(-c2cccc(Br)c2)no1 (stereo not shown)	-28.96	-35.75
CCOc1cccc(C(=O)Nc2ccncc2)c1	1.371	-9.741
O=c1c2cnc(N3CCCCC3)nc2ccn1-c1ccccc1	-4.737	10.29
CN(Cc1cn2c(n1)CN(C(=O)c1cccnc1)CC2)Cc1ccco1	-1.869 & -8.409	-4.931 & -13.16
CC/N=c1\nc(NCC)nc2n1C(O)(Nc1ccc(C)cc1C)CS2 (stereo not shown)	-11.68	-3.785
Cc1nsc(N2CCCN(C(=O)NCc3cc(C)on3)CC2)n1	-9.338	-1.298
O=C(NCCNC(=O)c1scnc1Cl)c1cccs1	16.64	-4.222
Fc1ccc(CN2CCOCC3(CCN(Cc4nccs4)C3)C2)cc1.O=C(O)C(F)(F)F.O=C(O)C(F)(F)F (stereo not shown)	14.98	19.46 & -1.238
CCCS(=O)(=O)NC(=O)c1ccc(-n2nc(C)cc2C)cc1	10.48	3.269 & 39.37
CCCS(=O)(=O)N1CCc2onc(CNc3ncccn3)c2C1	-29.31	-16.48 & -5.607
[H][C@@]12C[C@H](C(=O)N3CCOCC3)[C@@]([H])(CN(c3ncc(F)cn3)C1)O2	-22.33	3.235
O=C(CC(F)(F)F)N1CCc2[nH]nc(-c3ccc4c(c3)OCO4)c2C1	19.72 & -2.379	7.952 & -4.369
Cn1c(CN2CCOC(CNc3cccnn3)C2)nnc1C1CC1 (stereo not shown)	-7.862	11.35
N#Cc1cccc(OCC(=O)N(Cc2ccncc2)C2CC2)c1	-16.02	-11.6
CCn1nc(C)c2nnn(CC(=O)Nc3cccc(Cl)c3)c(=O)c21	1.858	16.41
Cc1cc(NC(=O)CN(C)C2CCCN(c3cccnn3)C2)on1 (stereo not shown)	2.274	9.726
Cc1nnc(C(C)N2CCN(Cc3noc(C(C)(C)C)n3)CC2)o1 (stereo not shown)	-11.19	-20.82 & 1.395
CCCNC(=O)N1CCC(c2nnc(Cn3cccn3)n2C2CC2)CC1	0.7854	-20.78
CCOC(=O)CC1CCCCN1C(=O)c1cc(=O)[nH]c(=O)[nH]1 (stereo not shown)	-0.9849	-45.29
COc1c(CNC(c2cccc(F)c2)c2nccn2C)c(C)nn1C (stereo not shown)	-30.13	-21.93
[H][C@@]12C[C@H](C(=O)NCc3ccco3)CN(C(=O)c3ccnnc3)[C@]1([H])CCO2	-28.26	-10.47
CCOc1ccccc1C(=O)N1CC(=O)N(C2CCC2)CC(O)C1 (stereo not shown)	-0.6247	-0.8297
COCCOc1ncccc1C(=O)N1CCCn2ncnc21	-1.36	8.553 & 10.4
Cc1cc(C(=O)NCC(C)C)nn1C	3.965	3.861
CC(Cn1ccnc1)NC(=O)NCCNC(=O)C(C)C (stereo not shown)	-12.14	-16.36
CC(C)c1noc(CN(CCC2CCCCC2)CC(N)=O)n1	-3.7	-7.191
Cc1cc(C)n(CC(C)CNC(=O)N(C)Cc2cc(C)on2)n1 (stereo not shown)	-16.29	-40.07
O=C(CCC(=O)c1cccs1)NC1(C(=O)NCC2CC2)CCCC1	-2.893	-21.71
Cn1cc(C2COC3(CCN(C(=O)c4cccc(O)c4)CC3)C2)cn1 (stereo not shown)	16.27 & -13.39	-9.595
Cn1cc(-c2cnc3n2CCC32CCN(S(=O)(=O)C3CC3)CC2)cn1.O=C(O)C(F)(F)F	1.662	3.773
CSc1ccccc1C(=O)N(C)Cc1nncn1C(C)C	-13.37	3.544
CC1CCN(c2ccc(=O)n(CC(=O)NCCc3ccccc3)n2)CC1	11.9	8.353 & -14.02
CN(C)c1nc2n(c(=O)n1)CCN2C(=O)Nc1cccc(Cl)c1	-4.631	4.69
CCCOC(=O)N1CCc2cccc(S(=O)(=O)N3CCOCC3)c2C1	15.87	-9.23
O=c1cc(CN2CCCC2)nc2n1CCCN(CC1CCOCC1)C2	-6.698	27.6
CC1CN(CCc2ccncc2)CCO1 (stereo not shown)	-1.526	26.22

For reference, 5 entries once more:

SMILES	A	B
O=C(O)C(F)(F)F.O=C(O)C(F)(F)F.O=C(O)C(F)(F)F.c1cncc(C[C@H]2[C@H](N3CCOCC3)CCN2Cc2cccs2)c1	21.83	-0.8317 & 22.94
O=C(O)C(F)(F)F.O=C(O)C(F)(F)F.[H][C@]12CCN(c3ncccn3)[C@@]1([H])C[C@@H](C(=O)NCc1cccnc1)O2	-17.45 & -22.51	-18.87
Cc1nnc(C(C)N2CCN(Cc3noc(C(C)(C)C)n3)CC2)o1 (stereo not shown)	-11.19	-20.82 & 1.395
CN(CC(F)(F)F)C(=O)CN1CCC(c2cc3ccccc3[nH]2)CC1	2.323	-3.365 & 12.15
Fc1ccc2[nH]c([C@H]3CCN(C4CCOCC4)C3)nc2c1	-0.05748	-41.53 & -4.653

The values are deposited in ChEMBL (CHEMBL3988442, “University of Dundee, Small-Polar-MMV Screening Library” (2021)).